Laboratory results from PMC10163288.
The list shows a part of the results.

B1: il2ra_site1_3nfp_sap_16_mot_HHH_b1_07204_af2_000000187_0001_41_55_H_._HHH_b1_05536_0001_0000300023_0000001_0_0001 (protein)
chain: SSSSTEEMAKRSREIMELIKEGDHEEAEELARELLKEAREMGDKVARWLLEQLLERIEAASSSSS
B2: il2ra_site1_1z92_normal_mot_HHH_b2_03658_000000138_0001_39_56_H_._HHH_b2_00767_0001_0000100004_0000001_0 (protein)
chain: SSSSDKELEYLEEQIRRALERGSKKLAQKLIEMVRELAEFADDDEARRVAEELQEILEELSSSSS
B3: il2ra_site1_1z92_normal_mot_01209686ea234b34325f918445e6eade_0001_af2_000000154_0001_18_33_H_._HHH_b2_05878_0001_0000400061_0000001_0_af2pred_0001_af2pred (protein)
chain: SSSSSSLEEEAEEIVKELVKEYNLSEEDEELLRLAAENAVRAGFSEHSIERALRDFAERLSSSSS
B4: il2ra_site2_2erj_normal_mot_9d722f4281fe2ab0f1894ca7efdbd281_0001_1_000000254_0001_1_13_H_._a87409d3d07ab778cdfa687b5837bbba_0001_af2_0001_0001000009_0000001_0 (protein)
chain: DIRDVLRILERLFRNNPELKELLEEAEELLERGNPEEAVKVLERVLREAGVPPWFREALEHQAKQ
B5: il2ra_site1_2b5i_sap_9_mot_HHH_b2_02740_000000236_0001_1_21_H_._HHH_b1_02398_0001_0000300016_0000001_0_0001 (protein)
chain: SSSSDDELFHEIDELFREASRLFLNGNPEEAEKVLEKAIRLAEEGGDESTAEDLRRFLELLSSSS
B6: il2ra_site1_1z92_sap_9_mot_c9a8daa1dfea21d1414aecde54be4f54_0001_1_af2_000000024_0001_32_46_H_._0e4f66a3c4b070984708d3e1d5382b02_0001_1_af2_0001_0000100008_0000 … (protein)
chain: SSSSTDELARVAVRIVAEVFRQFNLSDEEFEELIRLADELLLKGYSEEEIREILEELAEKSSSSS
B7: il2ra_site1_3nfp_normal_mot_HHH_b2_05178_af2_000000174_0001_1_19_H_._HHH_b1_00627_af2_0001_0000200014_0000001_0 (protein)
chain: SSSSDREARRLLQEALRLAINGNPEEAKEVAEEAEKVAREEGNESLRKHIELLLKAIELLLSSSS
B8: il2ra_site1_3nfp_normal_mot_0eddeacbb14b769e73e254714f31e2f9_0001_af2_000000052_0001_37_51_H_._2ccf0a1412af474efb002135fd3db7a6_0001_af2_0001_0000300024_0000001 … (protein)
chain: NDADRLIKEAIRLDPRFADLLYRLMRLLIKNPDDEELLEALEEVVELILEGDPEEARKVAEEILK
B9: il2ra_site1_3nfp_normal_mot_HHH_b1_00042_af2_000000196_0001_42_57_H_._HHH_b2_07681_0001_0000900023_0000001_0_af2pred_0001_af2pred_1 (protein)
chain: SSSSDEASKEAEELIREIQRLLKEGNPEEARKLLEELEELAERLNDPILKRLVEILERRINSSSS
B10: il2ra_site2_3nfp_sap_17_mot_9f76941e31d6374ac6cec9652f83b6d3_0001_af2_000000073_0001_37_65_H_._0edc931bf049704647aa1156905c945d_0001_1_0001_0000300023_0000001_0 … (protein)
chain: SSSSKAEEYVEAAIELAKLALEAGDPEAARSSLEAAKQAAEDNRDPELERLVEELEEELNSSSSS
B11: il2ra_site1_1z92_normal_mot_HHH_b1_01250_000000104_0001_1_17_H_._9d722f4281fe2ab0f1894ca7efdbd281_0001_1_af2_0001_0000600030_0000001_0 (protein)
chain: DEEIRKVDRLVLRNPRAAELFLELMKLRWKGDPRFEEVEEELEEVLKKLGIPPEDVELILKVANQ
B12: il2ra_site1_3nfp_sap_17_mot_HHH_b1_06312_000000077_0001_1_18_H_._HHH_b2_05980_af2_0001_0000400032_0000001_0_0001 (protein)
chain: SSSSDVEERVKELLEEAKELLEEGNPQEAARVLHEAWRLAAEANDPELSQAVYRVMREIAHSSSS
B13: il2ra_site1_2b5i_normal_mot_HHH_b2_04910_000000118_0001_1_19_H_._HHH_b1_00806_af2_0001_0000300023_0000001_0_af2pred_0001_af2pred (protein)
chain: SSSSDEEKEEAHKLFEEANELARNGNPEEARKALEEAEKLAEEGNSPSLLKSIRAALRLAQSSSS
B14: il2ra_site2_3nfp_sap_19_mot_HHH_b1_00660_af2_000000199_0001_40_57_H_._HHH_b2_04465_0001_0000500014_0000001_0_0001 (protein)
chain: SSSSDEEVEELKKEIEELIKEGDTYEAMQLLEELLKLALELNDPEADKAVLELYKLINDRYSSSS
B15: il2ra_site2_3nfp_sap_30_mot_HHH_b1_02173_000000190_0001_1_18_H_._c1e259e16b19a3635eeea4582300f2e1_0001_af2_0001_0001400011_0000001_0_0001_af2pred_0001_af2pred (protein)
chain: SSSSSEEEKVEKIFREAEELLERGNPEEARRLLLRLLEELRELGDTQLILRIAELALKVLGSSSS
B16: il2ra_site2_2erj_normal_mot_HHH_b2_05722_000000033_0001_22_38_H_._HHH_b1_00927_0001_0001600018_0000001_0 (protein)
chain: SSSSSEEEEIEELFRKAEELLREGNPEEAEEVLREAFERAARLGNHELAAELIKLAAELFSSSSS
B17: il2ra_site2_3nfp_normal_mot_HHH_b2_00615_000000276_0001_1_15_H_._HHH_b2_07007_0001_0000900113_0000001_0 (protein)
chain: SSSSDNLEAWELLQEAVHLAREGNPEEARKLLEEAEEIAKKADSRVLRRSIEDVKELVERLSSSS
B18: il2ra_site2_2erj_normal_mot_90f6a21de4ed711cb697bb9f61d9c40c_0001_af2_000000135_0001_36_50_H_._HHH_b1_07609_0001_0000400038_0000001_1_af2pred_0001_af2pred (protein)
chain: SSSDLEEELRELVEELVEELGLSEEAKRWLELLAEELVKQGASPELAREQLKLSAELAHEALSSS

The binders below were run against il2ra, P01589 (assay: yeast display titration).

Apparent Kd, inactive:
B1 no binding seen, B2 no binding seen, B3 no binding seen, B4 no binding seen, B5 no binding seen, B6 no binding seen, B7 no binding seen, B8 no binding seen, B9 no binding seen, B10 no binding seen, B11 > 1710 nM, B12 no binding seen, B13 > 1500 nM, B14 no binding seen, B15 no binding seen, B16 no binding seen, B17 no binding seen, B18 no binding seen
